Measurements taken from PMC8048842 (Chembiochem, 2021).

Test system: BON and BON‐SSTR2 tumors
Assay: Histological ex vivo examination of tumor sections (confocal laser scanning microscopy)
Format: in vivo, mouse

Row | Structure (SMILES) | ICC fluorescence in tumor sections at PET tracer dose (mice sacrificed 1 h p.i., tracer dose of PET/MRI scan, SSTR2‐overexpressing and wild‐type tumor sections, confocal laser microscope) | ICC fluorescence in wild‐type BON tumor sections (mean grey value) (6 nmol i.v., mice n=3 sacrificed 5 h p.i., confocal laser scanning microscopy)
1 | C[C@@H](O)[C@H](NC(=O)[C@@H]1CSSC[C@H](NC(=O)[C@@H](Cc2ccccc2)NC(=O)c2ccc3c(c2)C(C)(C)/C(=C/C=C/C2=[N+](C)c4ccc(CNC(=O)CNC(=O)CN5CCN(CC(=O)O)CCN(CC(=O)O)CCN(CC(=O)O)CC5)cc4C2(C)C)N3CCCCS(=O)(=O)[O-])C(=O)N[C@@H](Cc2ccc(O)cc2)C(=O)N[C@H](Cc2c[nH]c3ccccc23)C(=O)N[C@@H](CCCCN)C(=O)N[C@@H]([C@@H](C)O)C(=O)N1)C(=O)O [^68Ga‐DOTA‐ICC‐TATE, metal not drawn] | no fluorescence above background level was detected | 
2 | C[C@@H](O)[C@H](NC(=O)[C@@H]1CSSC[C@H](NC(=O)[C@@H](Cc2ccccc2)NC(=O)c2ccc3c(c2)C(C)(C)/C(=C/C=C/C2=[N+](C)c4ccc(CNC(=O)CNC(=O)CN5CCN(CC(=O)O)CCN(CC(=O)O)CCN(CC(=O)O)CC5)cc4C2(C)C)N3CCCCS(=O)(=O)[O-])C(=O)N[C@@H](Cc2ccc(O)cc2)C(=O)N[C@H](Cc2c[nH]c3ccccc23)C(=O)N[C@@H](CCCCN)C(=O)N[C@@H]([C@@H](C)O)C(=O)N1)C(=O)O [^natGa‐DOTA‐ICC‐TATE, metal not drawn] |  | 12.4±3.3
